Results: PubChem BioAssay AID250 (DTP/NCI, 2004)
The list is a part of this screen's results and no random one: it gathers tests that were run many times, whatever their T/C, doses with no T/C, and many T/C values between a quarter and a half above the control. Further doses and runs are listed elsewhere. T/C is the treated group as % of the vehicle group. Some entries give survivors of the animals treated and no T/C: the source files T/C as zero there, which appears to mark a toxic dose or a test without result, not a measured value. Some doses without a T/C left all or most animals alive at the check, yet need not have been tolerated: survival well below the control is almost never listed, so the zero probably covers shortened survival too. For part of these data: Counts of survivors are from the toxicity check (mostly the fifth day) where no day follows; animals may have died later. Schedules are NCI's codes, taken here to give the interval after Q, in days (D) or hours (H), and the number of doses after X. Some schedule codes hold Z or #, which are not explained here. For survival time, this PubChem deposit counts one and a half times the control or more as active, and values a quarter to a half above the control carry no call in these data; other NCI protocols may use other cut-offs. Some entries were tested several times; their values stand side by side, smallest first. Some T/C values are followed by the survivors on the day toxicity was checked, most often the fifth; without a count, all were alive then. Marks such as (2×) say how often a value occurs here.

Assays:
[1] = tested on: BDF1 mice, L1210 leukemia sc; experiment: NCI In Vivo Anticancer Drug Screen. Data for tumor model L1210 Leukemia (subcutaneous) in B6D2F1 (BDF1) mice; conditions: T/C endpoint: median survival time, higher T/C = longer survival
Procedure, shortened: (§1)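 Transplantable tumor-bearing mice; survival or tumor size recorded; result = T/C, treated vs vehicle control.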

[2] = tested on: BDF1 mice, L1210 leukemia sc, survival T/C; experiment: as above; conditions: T/C endpoint: median survival time, higher T/C = longer survival
Procedure, shortened: as §1

[3] = dose: 8.4 mg/kg/injection, schedule: Q01DX001 (sc), vehicle: saline, run until all animals had died
[4] = dose: 108.0 mg/kg/injection, schedule: Q01DX Z (sc), vehicle: saline
[5] = dose: 180.0 mg/kg/injection, schedule: Q01DX Z (sc), vehicle: saline

## O=NN(CCCl)C(=O)NCCCl
[1]; dose: 1.08 mg/kg/injection, schedule: Q01DX Z (sc), vehicle: methylcellulose (MC)
  T/C: 138 % of control
[1]; dose: 1.8 mg/kg/injection, schedule: Q01DX Z (sc), vehicle: saline
  T/C: 147 % of control
[1]; dose: 5.0 mg/kg/injection, schedule: Q01DX001 (ip), vehicle: saline
  T/C: 142 % of control
[1]; dose: 5.0 mg/kg/injection, schedule: Q01DX001 (iv), vehicle: saline
  T/C: 147 % of control
[1]; dose: 5.0 mg/kg/injection, schedule: Q07DX Z (sc), vehicle: methylcellulose (MC)
  T/C: 138 % of control
[1]; dose: 5.0 mg/kg/injection, schedule: Q07DX Z (sc), vehicle: saline
  T/C: 131 % of control
[1]; dose: 5.0 mg/kg/injection, schedule: Q## X Z (sc), vehicle: saline
  T/C: 146 % of control
[1]; dose: 6.5 mg/kg/injection, schedule: Q07DX003 (sc), vehicle: saline, evaluated on day 9
  T/C: 135 % of control
[1]; dose: 6.5 mg/kg/injection, schedule: Q07DX003 (sc), vehicle: saline, evaluated on day 66
  T/C: 135 % of control
[1]; [3]
  T/C: 130 and 145 % of control
[1]; dose: 8.4 mg/kg/injection, schedule: Q01HX002 (ip), vehicle: saline
  T/C: 144 % of control [7 of 8 alive]
[1]; dose: 12.0 mg/kg/injection, schedule: Q01DX009 (ip), vehicle: saline
  T/C: 140 % of control
[1]; dose: 65.0 mg/kg/injection, schedule: Q01DX001 (sc), vehicle: saline, evaluated on day 99
  T/C: 135 % of control
[2]; dose: 3.0 mg/kg/injection, schedule: Q01DX Z (sc), vehicle: saline, evaluated on day 71
  T/C: 234 % of control
[2]; dose: 3.0 mg/kg/injection, schedule: Q01DX Z (sc), vehicle: saline, evaluated on day 79
  T/C: 331 % of control
[2]; dose: 3.0 mg/kg/injection, schedule: Q01DX Z (sc), vehicle: saline, run until all animals had died
  T/C: 240 and 284 % of control
[2]; dose: 5.0 mg/kg/injection, schedule: Q01DX Z (sc), vehicle: saline, evaluated on day 71
  T/C: 226 % of control
[2]; dose: 5.0 mg/kg/injection, schedule: Q01DX Z (sc), vehicle: saline, evaluated on day 79
  T/C: 578 % of control
[2]; dose: 5.0 mg/kg/injection, schedule: Q01DX Z (sc), vehicle: saline, run until all animals had died
  T/C: 368 and 640 % of control
[2]; dose: 5.0 mg/kg/injection, schedule: Q01HX002 (ip), vehicle: saline
  survivor count: 8 of 8
[2]; dose: 8.4 mg/kg/injection, schedule: Q01DX001 (sc), vehicle: saline, evaluated on day 79
  T/C: 168 % of control
[2]; dose: 8.4 mg/kg/injection, schedule: Q01DX001 (sc), vehicle: saline, evaluated on day 99
  T/C: 170 % of control
[2]; [3]
  T/C: 150 and 300 % of control
[2]; dose: 8.4 mg/kg/injection, schedule: Q01DX Z (sc), vehicle: saline, evaluated on day 71
  T/C: 165 % of control
[2]; dose: 8.4 mg/kg/injection, schedule: Q01DX Z (sc), vehicle: saline, evaluated on day 79
  T/C: 273 % of control
[2]; dose: 8.4 mg/kg/injection, schedule: Q01DX Z (sc), vehicle: saline, run until all animals had died
  T/C: 294 and 455 % of control
[2]; dose: 14.0 mg/kg/injection, schedule: Q01DX001 (sc), vehicle: saline, evaluated on day 79
  T/C: 257 % of control
[2]; dose: 14.0 mg/kg/injection, schedule: Q01DX001 (sc), vehicle: saline, evaluated on day 99
  T/C: 260 % of control
[2]; dose: 14.0 mg/kg/injection, schedule: Q01DX001 (sc), vehicle: saline, run until all animals had died
  T/C: 175, 177, 309, 363 % of control
[2]; dose: 23.0 mg/kg/injection, schedule: Q01DX001 (sc), vehicle: saline, evaluated on day 79
  T/C: 378 % of control
[2]; dose: 23.0 mg/kg/injection, schedule: Q01DX001 (sc), vehicle: saline, evaluated on day 99
  T/C: 370 % of control
[2]; dose: 23.0 mg/kg/injection, schedule: Q01DX001 (sc), vehicle: saline, run until all animals had died
  T/C: 250, 268, 371, 900 % of control
[2]; dose: 39.0 mg/kg/injection, schedule: Q01DX001 (sc), vehicle: saline, evaluated on day 79
  T/C: 631 % of control
[2]; dose: 39.0 mg/kg/injection, schedule: Q01DX001 (sc), vehicle: saline, evaluated on day 99
  T/C: 545 % of control
[2]; dose: 39.0 mg/kg/injection, schedule: Q01DX001 (sc), vehicle: saline, run until all animals had died
  T/C: 225, 268, 857, 900 % of control
[2]; dose: 39.0 mg/kg/injection, schedule: Q01HX002 (ip), vehicle: saline
  survivor count: 8 of 8
[2]; dose: 48.0 mg/kg/injection, schedule: Q01DX009 (ip), vehicle: saline
  survivor count: 8 of 8
[2]; dose: 65.0 mg/kg/injection, schedule: Q01DX001 (sc), vehicle: saline, evaluated on day 79
  T/C: 347 % of control
[2]; dose: 65.0 mg/kg/injection, schedule: Q01DX001 (sc), vehicle: saline, run until all animals had died
  T/C: 104 and 409 % of control
[2]; dose: 65.0 mg/kg/injection, schedule: Q01HX002 (ip), vehicle: saline
  survivor count: 8 of 8

## NC(Cc1c[nH]c2ccc(N(CCCl)CCCl)cc12)C(=O)O (configuration not stated)
[1]; dose: 3.0 mg/kg/injection, schedule: Q01DX Z (sc), vehicle: methylcellulose (MC)
  T/C: 141 % of control
[1]; dose: 5.0 mg/kg/injection, schedule: Q01DX Z (sc), vehicle: methylcellulose (MC)
  T/C: 129 % of control
[2]; dose: 0.39 mg/kg/injection, schedule: Q01DX Z (sc), vehicle: methylcellulose (MC)
  survivor count: 5 of 8

## N=[N+]=CC(=O)OCC(N)C(=O)O (configuration not stated)
[1]; dose: 23.0 mg/kg/injection, schedule: Q01DX Z (sc), vehicle: saline
  T/C: 125 % of control
[1]; dose: 32.0 mg/kg/injection, schedule: Q01DX Z (sc), vehicle: water
  T/C: 136 % of control
[1]; dose: 39.0 mg/kg/injection, schedule: Q01DX Z (sc), vehicle: saline
  T/C: 125 % of control
[1]; dose: 51.8 mg/kg/injection, schedule: Q01DX Z (sc), vehicle: water
  T/C: 135 % of control [9 of 10 alive]
[1]; dose: 64.0 mg/kg/injection, schedule: Q02DX Z (sc), vehicle: water
  T/C: 127 % of control
[2]; dose: 2.4 mg/kg/injection, schedule: Q01DX Z (sc), vehicle: water
  survivor count: 6 of 10
[2]; dose: 18.7 mg/kg/injection, schedule: Q01DX Z (sc), vehicle: water
  survivor count: 5 of 10

## OC(C1CO1)C(O)C1CO1 (configuration not stated)
[1]; dose: 2.0 mg/kg/injection, schedule: Q01DX009 (ip), vehicle: water
  T/C: 144 % of control
[1]; dose: 4.0 mg/kg/injection, schedule: Q01DX009 (ip), vehicle: water
  T/C: 133 % of control
[1]; dose: 4.0 mg/kg/injection, schedule: Q01DX009 (sc), vehicle: water
  T/C: 133 % of control
[2]; dose: 8.0 mg/kg/injection, schedule: Q01DX009 (ip), vehicle: water
  survivor count: 8 of 8
[2]; dose: 8.0 mg/kg/injection, schedule: Q01DX009 (sc), vehicle: water
  survivor count: 8 of 8
[2]; dose: 16.0 mg/kg/injection, schedule: Q01DX009 (ip), vehicle: water
  survivor count: 4 of 8
[2]; dose: 16.0 mg/kg/injection, schedule: Q01DX009 (sc), vehicle: water
  survivor count: 5 of 8
[2]; dose: 16.0 mg/kg/injection, schedule: Q04DX003 (ip), vehicle: water
  survivor count: 2 of 8
[2]; dose: 16.0 mg/kg/injection, schedule: Q04DX003 (sc), vehicle: water
  survivor count: 2 of 8
[2]; dose: 32.0 mg/kg/injection, schedule: Q04DX003 (ip), vehicle: water
  survivor count: 3 of 8
[2]; dose: 32.0 mg/kg/injection, schedule: Q04DX003 (sc), vehicle: water
  survivor count: 2 of 8

## O=c1[nH]c(=O)n(C2CC(O)C(CO)O2)cc1F (configuration not stated)
[1]; dose: 65.0 mg/kg/injection, schedule: Q01DX Z (sc), vehicle: saline
  T/C: 130 % of control
[1]; dose: 80.0 mg/kg/injection, schedule: Q01DX009 (sc), vehicle: water
  T/C: 129 % of control
[1]; [4]
  T/C: 127 % of control
[1]; dose: 128.0 mg/kg/injection, schedule: Q01DX Z (sc), vehicle: saline
  T/C: 144 % of control
[1]; dose: 160.0 mg/kg/injection, schedule: Q01DX009 (ip), vehicle: water
  T/C: 140 % of control
[1]; dose: 160.0 mg/kg/injection, schedule: Q01DX009 (sc), vehicle: water
  T/C: 125 % of control
[1]; [5]
  T/C: 145 % of control [9 of 10 alive]
[1]; dose: 300.0 mg/kg/injection, schedule: Q01DX Z (sc), vehicle: saline
  T/C: 140 (2×), 141 [7 of 10 alive], 144 % of control
[1]; dose: 500.0 mg/kg/injection, schedule: Q01DX Z (sc), vehicle: saline
  T/C: 130 and 135 % of control
[2]; [4]
  T/C: 120 [9 of 10 alive], 150, 155 % of control
[2]; [5]
  T/C: 150, 155, 160 % of control
